Experimental data reported in the supplement of paper PMC8728848.
The other results are listed elsewhere or left out.

Experiments:
Experiment in all cases: glycan array binding signal (z-score within array); higher = stronger binding
Details in all cases: glycan notation: IUPAC condensed, linker removed
[1] = molecular target: GlcNAc(b1-3)Gal(b1-4)GlcNAc(b1-3)Gal(b1-4)GlcNAc(b1-3)GalNAc
Procedure, shortened: (§1)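 The binding signal is a Z-score computed within each array. Data were drawn from 3228 arrays in the Consortium for Functional Glycomics database, restricted to those with a known protein sequence. Scores were averaged over arrays of the same protein sequence at different concentrations or buffers, and over linkers, and negative values can be taken as non-binding.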

[2] = molecular target: GlcNAc(b1-3)Gal(b1-4)GlcNAc(b1-3)GalNAc
Procedure, shortened: as §1

[3] = molecular target: GlcNAc(b1-3)Gal(b1-4)GlcNAc(b1-3)[GlcNAc(b1-3)Gal(b1-4)GlcNAc(b1-3)]GalNAc
Procedure, shortened: as §1

[4] = molecular target: GlcNAc(b1-3)Gal(b1-4)GlcNAc(b1-6)[Gal(b1-3)]GalNAc
Procedure, shortened: as §1

[5] = molecular target: GlcNAc(b1-3)Gal(b1-4)GlcNAc(b1-6)[GlcNAc(b1-3)Gal(b1-3)]GalNAc
Procedure, shortened: as §1

[6] = molecular target: GlcNAc(b1-3)Gal(b1-4)GlcNAc(b1-6)[GlcNAc(b1-3)]Gal(b1-4)GlcNAc
Procedure, shortened: as §1

[7] = molecular target: GlcNAc(b1-3)GalNAc
Procedure, shortened: as §1

[8] = molecular target: GlcNAc(b1-3)Man
Procedure, shortened: as §1

[9] = molecular target: GlcNAc(b1-3)[GlcNAc(b1-4)][GlcNAc(b1-6)]GlcNAc
Procedure, shortened: as §1

[10] = molecular target: GlcNAc(b1-3)[GlcNAc(b1-6)]Gal(b1-4)GlcNAc
Procedure, shortened: as §1

[11] = molecular target: GlcNAc(b1-3)[GlcNAc(b1-6)]GalNAc
Procedure, shortened: as §1

[12] = molecular target: GlcNAc(b1-4)Gal(b1-4)GlcNAc
Procedure, shortened: as §1

[13] = molecular target: GlcNAc(b1-4)GlcNAc
Procedure, shortened: as §1

[14] = molecular target: GlcNAc(b1-4)GlcNAc(b1-4)GlcNAc
Procedure, shortened: as §1

[15] = molecular target: GlcNAc(b1-4)GlcNAc(b1-4)GlcNAc(b1-4)GlcNAc(b1-4)GlcNAc
Procedure, shortened: as §1

[16] = molecular target: GlcNAc(b1-4)GlcNAc(b1-4)GlcNAc(b1-4)GlcNAc(b1-4)GlcNAc(b1-4)GlcNAc
Procedure, shortened: as §1

[17] = molecular target: GlcNAc(b1-4)[GlcNAc(b1-6)]GalNAc
Procedure, shortened: as §1

[18] = molecular target: GlcNAc(b1-6)Gal(b1-4)GlcNAc
Procedure, shortened: as §1

[19] = molecular target: GlcNAc(b1-6)GalNAc
Procedure, shortened: as §1

[20] = molecular target: GlcNAc6S(b1-3)Gal(b1-4)GlcNAc
Procedure, shortened: as §1

[21] = molecular target: Kdn(a2-3)Gal(b1-3)GalNAc
Procedure, shortened: as §1

[22] = molecular target: Kdn(a2-3)Gal(b1-3)GlcNAc
Procedure, shortened: as §1

[23] = molecular target: Kdn(a2-3)Gal(b1-4)Glc
Procedure, shortened: as §1

[24] = molecular target: Kdn(a2-3)Gal(b1-4)GlcNAc
Procedure, shortened: as §1

[25] = molecular target: Kdn(a2-3)Gal(b1-4)[Fuc(a1-3)]GlcNAc
Procedure, shortened: as §1

[26] = molecular target: Kdn(a2-6)Gal(b1-4)GlcNAc
Procedure, shortened: as §1

[27] = molecular target: Man(a1-2)Man(a1-2)Man(a1-3)Man
Procedure, shortened: as §1

[28] = molecular target: Man(a1-2)Man(a1-2)Man(a1-6)[Man(a1-3)]Man
Procedure, shortened: as §1

[29] = molecular target: Man(a1-2)Man(a1-3)Man
Procedure, shortened: as §1

[30] = molecular target: Man(a1-2)Man(a1-3)[Man(a1-2)Man(a1-6)]Man
Procedure, shortened: as §1

[31] = molecular target: Man(a1-2)Man(a1-3)[Man(a1-2)Man(a1-6)]Man(a1-6)[Man(a1-2)Man(a1-2)Man(a1-3)]Man
Procedure, shortened: as §1

[32] = molecular target: Man(a1-2)Man(a1-3)[Man(a1-2)Man(a1-6)]Man(a1-6)[Man(a1-2)Man(a1-2)Man(a1-3)]Man(b1-4)GlcNAc(b1-4)GlcNAc
Procedure, shortened: as §1

[33] = molecular target: Man(a1-2)Man(a1-3)[Man(a1-6)]Man(a1-6)[Man(a1-2)Man(a1-3)]Man(b1-4)GlcNAc(b1-4)GlcNAc
Procedure, shortened: as §1

[34] = molecular target: Man(a1-2)Man(a1-6)[Man(a1-3)]Man(a1-6)[Man(a1-2)Man(a1-2)Man(a1-3)]Man
Procedure, shortened: as §1

[35] = molecular target: Man(a1-2)Man(a1-6)[Man(a1-3)]Man(a1-6)[Man(a1-2)Man(a1-2)Man(a1-3)]Man(b1-4)GlcNAc(b1-4)GlcNAc
Procedure, shortened: as §1

[36] = molecular target: Man(a1-3)[Man(a1-6)]Man
Procedure, shortened: as §1

[37] = molecular target: Man(a1-3)[Man(a1-6)]Man(a1-6)[Man(a1-2)Man(a1-3)]Man(b1-4)GlcNAc(b1-4)GlcNAc
Procedure, shortened: as §1

[38] = molecular target: Man(a1-3)[Man(a1-6)]Man(a1-6)[Man(a1-3)]Man
Procedure, shortened: as §1

[39] = molecular target: Man(a1-3)[Man(a1-6)]Man(a1-6)[Man(a1-3)]Man(b1-4)GlcNAc(b1-4)GlcNAc
Procedure, shortened: as §1

[40] = molecular target: Man(a1-3)[Man(a1-6)]Man(b1-4)GlcNAc(b1-4)GlcNAc
Procedure, shortened: as §1

[41] = molecular target: Man(a1-3)[Man(a1-6)]Man(b1-4)GlcNAc(b1-4)[Fuc(a1-6)]GlcNAc
Procedure, shortened: as §1

[42] = molecular target: Man(a1-6)Man
Procedure, shortened: as §1

[43] = molecular target: Man(b1-4)GlcNAc
Procedure, shortened: as §1

[44] = molecular target: MurNAc(b1-4)GlcNAc
Procedure, shortened: as §1

[45] = molecular target: Neu5Ac(a2-3)Gal
Procedure, shortened: as §1

[46] = molecular target: Neu5Ac(a2-3)Gal(b1-3)GalNAc
Procedure, shortened: as §1

[47] = molecular target: Neu5Ac(a2-3)Gal(b1-3)GalNAc(b1-3)Gal(a1-4)Gal(b1-4)Glc
Procedure, shortened: as §1

[48] = molecular target: Neu5Ac(a2-3)Gal(b1-3)GalNAc(b1-4)[Neu5Ac(a2-3)]Gal(b1-4)Glc
Procedure, shortened: as §1

[49] = molecular target: Neu5Ac(a2-3)Gal(b1-3)GalNAc(b1-4)[Neu5Ac(a2-8)Neu5Ac(a2-3)]Gal(b1-4)Glc
Procedure, shortened: as §1

[50] = molecular target: Neu5Ac(a2-3)Gal(b1-3)GalNAc6S
Procedure, shortened: as §1

[51] = molecular target: Neu5Ac(a2-3)Gal(b1-3)GlcNAc
Procedure, shortened: as §1

[52] = molecular target: Neu5Ac(a2-3)Gal(b1-3)GlcNAc(b1-2)Man
Procedure, shortened: as §1

[53] = molecular target: Neu5Ac(a2-3)Gal(b1-3)GlcNAc(b1-2)Man(a1-3)[GlcNAc(b1-4)][Neu5Ac(a2-3)Gal(b1-3)GlcNAc(b1-2)Man(a1-6)]Man(b1-4)GlcNAc(b1-4)GlcNAc
Procedure, shortened: as §1

[54] = molecular target: Neu5Ac(a2-3)Gal(b1-3)GlcNAc(b1-2)Man(a1-3)[Neu5Ac(a2-3)Gal(b1-3)GlcNAc(b1-2)Man(a1-6)]Man(b1-4)GlcNAc(b1-4)GlcNAc
Procedure, shortened: as §1

[55] = molecular target: Neu5Ac(a2-3)Gal(b1-3)GlcNAc(b1-3)Gal(b1-3)GlcNAc
Procedure, shortened: as §1

[56] = molecular target: Neu5Ac(a2-3)Gal(b1-3)GlcNAc(b1-3)Gal(b1-4)GlcNAc
Procedure, shortened: as §1

[57] = molecular target: Neu5Ac(a2-3)Gal(b1-3)GlcNAc(b1-3)GalNAc
Procedure, shortened: as §1

[58] = molecular target: Neu5Ac(a2-3)Gal(b1-3)GlcNAc(b1-4)Gal(b1-4)Glc
Procedure, shortened: as §1

[59] = molecular target: Neu5Ac(a2-3)Gal(b1-3)GlcNAc(b1-6)GalNAc
Procedure, shortened: as §1

[60] = molecular target: Neu5Ac(a2-3)Gal(b1-3)GlcNAc6S
Procedure, shortened: as §1

B1: Protein L(A-C2) (Finegoldia magna), Q51912 (protein)
chain: ADEPIDLEKLEEKRDKENVGNLPKFDNEVKDGSENPMAKYPDFDDEASTRFETENNEFEEKKVVSDNFFDQSEHPFVENKEETPETPETDSEEEVTIKANLIFANGSTQTAEFKGTFEKATSEAYAYADTLKKDNGEYTVDVADKGYTLNIKFAGKEKTPEEPKEEVTIKANLIYADGKTQTAEFKGTFEEATAEAYRYADALKKDNGEYTVDVADKGYTLNIKFAGKEKTPEEPKEEVTIKANLIYADGKTQTAEFKGTFEEATAEAYRYADLLAKENGKYTVDVADKGYTLNIKFAGKEKTPEEPKEEVTIKANLIYADGKTQTAEFKGTFAEATAEAYRYADLLAKENGKYTADLEDGGYTINIRFAGKKVDEKPEEKEQVTIKENIYFEDGTVQTATFKGTFAEATAEAYRYADLLSKEHGKYTADLEDGGYTINIRFAGKEEPEETPEKPEVQDGYASYEEAEAAAKEALKNDDVNKSYTIRQGADGRYYYVLSPVEAEEEKPEAQNGYATYEEAEAAAKKALENDPINKSYSIRQGADGRYYYVLSPVEAE
[1]
  glycan array binding signal (z-score): -0.786
[2]
  glycan array binding signal (z-score): -0.749
[3]
  glycan array binding signal (z-score): -0.531
[4]
  glycan array binding signal (z-score): 0.049
[5]
  glycan array binding signal (z-score): -0.623
[6]
  glycan array binding signal (z-score): -0.568
[7]
  glycan array binding signal (z-score): -0.858
[8]
  glycan array binding signal (z-score): -0.226
[9]
  glycan array binding signal (z-score): -0.145
[10]
  glycan array binding signal (z-score): -0.856
[11]
  glycan array binding signal (z-score): -0.41
[12]
  glycan array binding signal (z-score): -0.687
[13]
  glycan array binding signal (z-score): -0.693
[14]
  glycan array binding signal (z-score): -0.712
[15]
  glycan array binding signal (z-score): -0.381
[16]
  glycan array binding signal (z-score): -0.356
[17]
  glycan array binding signal (z-score): -0.543
[18]
  glycan array binding signal (z-score): -0.283
[19]
  glycan array binding signal (z-score): -0.929
[20]
  glycan array binding signal (z-score): 0.355
[21]
  glycan array binding signal (z-score): 0.05
[22]
  glycan array binding signal (z-score): -0.23
[23]
  glycan array binding signal (z-score): -0.064
[24]
  glycan array binding signal (z-score): -0.648
[25]
  glycan array binding signal (z-score): 2.1
[26]
  glycan array binding signal (z-score): -0.185
[27]
  glycan array binding signal (z-score): -0.753
[28]
  glycan array binding signal (z-score): 0.607
[29]
  glycan array binding signal (z-score): -0.409
[30]
  glycan array binding signal (z-score): -1.12
[31]
  glycan array binding signal (z-score): -0.567
[32]
  glycan array binding signal (z-score): 0.874
[33]
  glycan array binding signal (z-score): -0.761
[34]
  glycan array binding signal (z-score): 1.4
[35]
  glycan array binding signal (z-score): -1.51
[36]
  glycan array binding signal (z-score): -0.723
[37]
  glycan array binding signal (z-score): 4.98
[38]
  glycan array binding signal (z-score): -0.409
[39]
  glycan array binding signal (z-score): 1.25
[40]
  glycan array binding signal (z-score): 0.154
[41]
  glycan array binding signal (z-score): 0.15
[42]
  glycan array binding signal (z-score): 0.219
[43]
  glycan array binding signal (z-score): 0.002
[44]
  glycan array binding signal (z-score): -0.844
[45]
  glycan array binding signal (z-score): -0.609
[46]
  glycan array binding signal (z-score): 0.418
[47]
  glycan array binding signal (z-score): 1.65
[48]
  glycan array binding signal (z-score): -1.08
[49]
  glycan array binding signal (z-score): 0.726
[50]
  glycan array binding signal (z-score): -0.684
[51]
  glycan array binding signal (z-score): -0.31
[52]
  glycan array binding signal (z-score): 3.79
[53]
  glycan array binding signal (z-score): -0.605
[54]
  glycan array binding signal (z-score): -0.023
[55]
  glycan array binding signal (z-score): -0.399
[56]
  glycan array binding signal (z-score): -0.808
[57]
  glycan array binding signal (z-score): 0.746
[58]
  glycan array binding signal (z-score): -1.04
[59]
  glycan array binding signal (z-score): 0.183
[60]
  glycan array binding signal (z-score): -0.165
